{"source": "PubChem BioAssay AID588497", "about": "(NMMLSC, 2011)", "note": "In all, about 360,000 compounds went through this assay and about 780 (0.22%) were called active. Inconclusive results, whose numbers are uncertain, are shown with a selection of clear calls. Cut-off read from the data, not from the text of the source: active = inhibition above about 35% (passing the limit was not always enough); inconclusive = no clear call, values can overlap the other calls.", "data": [{"tested_on": "Botulinum neurotoxin type F light chain protease (Clostridium botulinum)", "experiment": "BoNT/F light chain protease inhibitors, primary screen, biochemical, flow cytometry, MLPCN library (AID 588497); note: plate controls were buffer without enzyme for full effect and enzyme alone for no effect", "settings": "Multiplex microsphere protease cleavage assay, at 10 µM, active compounds read high", "values": [{"molecule": "O=C(c1cccc(Cl)c1)N1CCN(Cc2ccccc2)CC1", "inhibition": "inconclusive: -29.3%"}, {"molecule": "Fc1ccc(/C=N/n2c(C3CCCCC3)n[nH]c2=S)cc1", "inhibition": "inconclusive: 1.6%"}, {"molecule": "CN(CC(=O)Nc1ncn[nH]1)S(=O)(=O)c1cc(Cl)ccc1Cl", "inhibition": "inactive: -2.4%"}, {"molecule": "COc1ccc(/C=N/NC(=S)Nc2c(C)n(C)n(-c3ccccc3)c2=O)cc1OC", "inhibition": "inconclusive: 119%"}, {"molecule": "CCOc1ccc(/C=C2\\SC(=S)N(CCC(=O)N(CCO)c3ccccc3)C2=O)cc1", "inhibition": "inconclusive: 5.1%"}, {"molecule": "COc1ccc(C(=O)N2CCN(Cc3ccccc3[N+](=O)[O-])CC2)cc1", "inhibition": "inconclusive: 1.4%"}, {"molecule": "N#CCCn1cc(C(=O)Nc2ccc(F)cc2)c(-c2ccccc2)n1", "inhibition": "inconclusive: 6.2%"}, {"molecule": "O=C(NC(=S)NNC(=O)c1ccco1)c1ccccc1", "inhibition": "inconclusive: 10.1%"}, {"molecule": "COC(=O)c1cn(CCOc2ccc(C)cc2)c2ccccc12", "inhibition": "inactive: -3.2%"}, {"molecule": "COCc1cc(C)nc2sc(C(=O)Nc3ccc(C(=O)OC)cc3)c(N)c12", "inhibition": "inconclusive: 11%"}, {"molecule": "CCOC(=O)c1nn(-c2ccccc2)c(=O)cc1SC(C)C", "inhibition": "inactive: 1.6%"}, {"molecule": "Cc1nn2c(NCc3cccnc3)c3c(nc2c1-c1ccccc1)CCC3", "inhibition": "inconclusive: 1.8%"}, {"molecule": "Cc1ccc(C(=O)Nc2ccccc2)cc1S(=O)(=O)N1CCN(C)CC1", "inhibition": "inconclusive: -37.2%"}, {"molecule": "O=C(O)c1ccccc1S(=O)CCO", "note": "(stereo not drawn)", "inhibition": "inactive: 1.5%"}, {"molecule": "N#CC(C(N)=O)=C1CCCCC1", "inhibition": "inconclusive: -76.7%"}, {"molecule": "COc1ccc(C(=O)Nc2c(C)cc(C)cc2C)cc1OC", "inhibition": "inconclusive: -24.9%"}, {"molecule": "C=CCC1(N(C(C)=O)c2ccccc2)CCCCC1", "inhibition": "inactive: -0.3%"}, {"molecule": "COc1ccc(-c2nnc(SC)nc2-c2ccc(OC)c([N+](=O)[O-])c2)cc1[N+](=O)[O-]", "inhibition": "inconclusive: 196%"}, {"molecule": "Cc1ccc(SCC(=O)OCC(=O)N(C)CC(=O)Nc2ccc(F)cc2)cc1", "inhibition": "inconclusive: 9.3%"}, {"molecule": "COC(=O)c1cc(S(=O)(=O)N2CCCC2)c(Cl)cc1Cl", "inhibition": "inconclusive: -7.1%"}, {"molecule": "COc1ccc(C(=O)NCCS(=O)(=O)NCCc2ccccc2)cc1", "inhibition": "inconclusive: -25.7%"}, {"molecule": "Cn1ncc2nnn(-c3ccccc3)c(=O)c21", "inhibition": "inconclusive: -0.4%"}, {"molecule": "CC1CCN(CC(=O)Nc2ccc(S(=O)(=O)NC3CC3)cc2)CC1", "inhibition": "inactive: -2.5%"}, {"molecule": "CCCc1nc2c3ccccc3ccn2c1Cc1cccc(Cl)c1", "inhibition": "inactive: 1.6%"}, {"molecule": "Cc1c(O)ccc2cc(S(=O)(=O)c3ccccc3)c(=O)oc12", "inhibition": "inconclusive: -6.5%"}, {"molecule": "COc1ccc(NC(=O)C(c2ccccc2)c2ccccc2)c(OC)c1", "inhibition": "inconclusive: -37.3%"}, {"molecule": "O=C(NCC1CCN(S(=O)(=O)c2ccccc2)CC1)Nc1ccccc1", "inhibition": "inconclusive: 20.1%"}, {"molecule": "Cc1occc1C(=O)N/N=C/C=C/c1ccc(N(C)C)cc1", "inhibition": "inactive: -12.2%"}, {"molecule": "Cc1ccc(NC(=O)C(C)OC(=O)Cc2c[nH]c3ccccc23)cc1S(=O)(=O)N1CCOCC1", "note": "(stereo not drawn)", "inhibition": "inconclusive: 4.3%"}, {"molecule": "COc1ccc(OCC(=O)NNC(=O)c2ccc3c(=O)n4c(nc3c2)CCC4)cc1", "inhibition": "inactive: 0%"}, {"molecule": "O=C(OCc1cc(=O)oc2cc(O)ccc12)c1cc(S(=O)(=O)N2CCOCC2)ccc1F", "inhibition": "inactive: -2.5%"}, {"molecule": "CC(=O)N(c1cccc(Br)c1)c1nc(C)cc(C)c1C#N", "inhibition": "inconclusive: 27.1%"}, {"molecule": "CCSc1cnn(-c2ccccc2)c(=O)c1Cl", "inhibition": "inconclusive: 1.4%"}, {"molecule": "COc1cc(CNCc2ccc(C)cc2)cc(OC)c1OC", "inhibition": "inconclusive: -16.1%"}, {"molecule": "OC(C#CCN1CCCCCC1)(c1ccccc1)c1cccnc1", "note": "(stereo not drawn)", "inhibition": "inconclusive: 108%"}, {"molecule": "CCOC(=O)C(=CNc1ccc2c(c1)c1ccccc1n2CC)C(=O)OCC", "inhibition": "inconclusive: 85.6%"}, {"molecule": "O=C(O)Cn1c(P(=O)(O)c2ccccc2)nc2ccccc21", "inhibition": "inactive: 17.8%"}, {"molecule": "O=C(c1ccc([N+](=O)[O-])cc1Cl)N1CCN(c2ccccn2)CC1", "inhibition": "inconclusive: -81.5%"}, {"molecule": "O=Cc1c(Nc2cccc(C(F)(F)F)c2)nc2ccccn2c1=O", "inhibition": "inconclusive: 34.4%"}, {"molecule": "Cc1ccc(OCc2n[nH]c(=S)n2-c2ccc(Br)cc2)cc1", "inhibition": "inconclusive: -31.5%"}, {"molecule": "Cc1ccc(N2C(=O)c3cccc4c([N+](=O)[O-])ccc(c34)C2=O)c2cccnc12", "inhibition": "inactive: -2.5%"}, {"molecule": "C/C=C/C(=O)OCC(=O)Nc1c(Cl)cccc1Cl", "inhibition": "inactive: -2.6%"}, {"molecule": "CS(=O)(=O)N(CC(=O)N1CCOCC1)c1cccc(F)c1", "inhibition": "inconclusive: 25.5%"}, {"molecule": "COc1cccc(NC(=O)c2cccc(C(=O)Nc3cccc(OC)c3)c2)c1", "inhibition": "inconclusive: 22.9%"}, {"molecule": "COc1ccc(C(=O)OCCN2CCOCC2)cc1OC", "inhibition": "inconclusive: -38.1%"}, {"molecule": "COc1ccc(N(CC(=O)NCc2ccc(C)cc2)S(=O)(=O)c2c(C)noc2C)cc1", "inhibition": "inactive: 2.7%"}, {"molecule": "Cc1ccc2cc3cc(C(=O)N4CCN(C(=O)c5ccco5)CC4)sc3nc2c1", "inhibition": "inconclusive: 0.1%"}, {"molecule": "Cc1cccc(NC(=O)CSc2cccc3cccnc23)c1", "inhibition": "inconclusive: -12.3%"}, {"molecule": "COc1ccccc1NC(=O)N1CCCC1C(=O)NCCc1ccccc1", "note": "(stereo not drawn)", "inhibition": "inconclusive: -20%"}, {"molecule": "Cc1cc(N2CCN(C)CC2)nc2ccc(NC(=O)CCC(=O)NCCCOC(C)C)cc12", "inhibition": "inconclusive: -16.4%"}, {"molecule": "COCC(=O)NCCc1nc(-c2ccccc2)cs1", "inhibition": "inconclusive: -17%"}, {"molecule": "CCOC(=O)C1=C(C)c2ccccc2N(S(=O)(=O)C(F)(F)F)C1C(=O)OCC", "note": "(stereo not drawn)", "inhibition": "inactive: -1.6%"}, {"molecule": "C/C(=N\\n1c(C)nc2ccccc2c1=O)c1ccc(N)cc1", "inhibition": "inconclusive: 7.3%"}, {"molecule": "Cc1ccc(C2CC(=O)C=C(NCc3ccccc3)C2)cc1", "note": "(stereo not drawn)", "inhibition": "inconclusive: 21.2%"}, {"molecule": "Cc1ccnc(NC(=O)/C=C/c2cccs2)c1", "inhibition": "inactive: 6.1%"}, {"molecule": "O=C(CSCCc1ccccn1)Nc1ccccn1", "inhibition": "inactive: -6.2%"}, {"molecule": "O=C(O)c1cc(N2C(=O)CCC2=O)ccc1Cl", "inhibition": "inconclusive: 20.4%"}, {"molecule": "CCn1c(/C=C/c2c(C)n(CC)c3ccccc23)nc2ccccc2c1=O", "inhibition": "inactive: 15.1%"}, {"molecule": "CCCCOCCCNC(=O)C[C@@H]1C[C@@]2(C(=O)OC)CCCCC=C2N(Cc2ccco2)C1=O", "inhibition": "inactive: -10.6%"}, {"molecule": "COc1ccc(C(=O)Nc2nc(OCC(F)(F)F)cnc2/C=C\\c2ccccc2)c(OC)c1", "inhibition": "inactive: -8%"}, {"molecule": "O=C(N/N=C/c1ccc(Br)s1)c1cccc([N+](=O)[O-])c1", "inhibition": "inactive: -26%"}, {"molecule": "COc1cc(/C=N\\Nc2nncn2N)ccc1OC(C)=O", "inhibition": "inconclusive: -7.4%"}, {"molecule": "O=C(Nc1cc2c3c(c1)C1CCCC1CN3CC1CCCC21)c1ccccc1", "note": "(stereo not drawn)", "inhibition": "inconclusive: -114%"}, {"molecule": "O=C(CN1C(=O)C2CC=CCC2C1=O)Nc1ccc(S(=O)(=O)Nc2nccs2)cc1", "note": "(stereo not drawn)", "inhibition": "inactive: -6.4%"}, {"molecule": "COc1ccc(/C=C/CN2CCCC(C(=O)c3ccc(OC)c(F)c3)C2)cc1", "note": "(stereo not drawn)", "inhibition": "inactive: -2.3%"}, {"molecule": "CC(=O)Nc1ccc(C=NN=C2c3ccccc3-c3ccccc32)cc1", "inhibition": "inactive: -7%"}, {"molecule": "CC(C)CCN1NC2(CCC(C)CC2)NC1=S", "note": "(stereo not drawn)", "inhibition": "inconclusive: 30.2%"}, {"molecule": "COC(=O)c1ccc(NC(=O)C2CC(=O)OC2c2ccccc2)cc1", "note": "(stereo not drawn)", "inhibition": "inconclusive: 2.7%"}, {"molecule": "CC(C)(C)c1ccc(C(=O)NCCCn2ccnc2)cc1", "inhibition": "inconclusive: 11.4%"}, {"molecule": "Cc1ccc(C(C(=O)NC(C)(C)C)N(CC2CCCO2)C(=O)Cn2nnc(-c3ccc(C)o3)n2)cc1", "note": "(stereo not drawn)", "inhibition": "inactive: 0.9%"}, {"molecule": "COc1ccc(OC)c(CCNC(=O)CCc2nnc3ccc(N4CCOCC4)nn23)c1", "inhibition": "inactive: 10.2%"}, {"molecule": "COc1ccc(C(=O)Nc2cccnc2Cl)cc1OC", "inhibition": "inconclusive: 14.4%"}, {"molecule": "O=C(O)c1cc(-c2cccs2)nc2ccc(Br)cc12", "inhibition": "inconclusive: 21.4%"}, {"molecule": "CCCCON1C(=O)c2cccc3cccc(c23)C1=O", "inhibition": "inconclusive: -20.8%"}, {"molecule": "Cc1cc(Br)ccc1NC(=O)CCS(=O)(=O)c1cccc2nonc12", "inhibition": "inactive: -5.4%"}, {"molecule": "CC(C(=O)Nc1ccc(Br)cc1C(=O)c1ccccc1)N1CCOCC1", "note": "(stereo not drawn)", "inhibition": "inconclusive: 11.6%"}, {"molecule": "CC(C)(C)n1cnc2cc(NC(=O)c3ccc(Cl)cc3)ccc21", "inhibition": "inconclusive: 46.1%"}, {"molecule": "N#Cc1c(N)nc2c(c1-c1cccnc1)CCCCC2", "inhibition": "inactive: -0.7%"}, {"molecule": "O=C(O)CC1(CC(=O)Nc2ccc3ccccc3c2)CCCCC1", "inhibition": "inconclusive: -5.5%"}, {"molecule": "COCC1CCCC1OS(N)(=O)=O", "note": "(stereo not drawn)", "inhibition": "inactive: 0.4%"}, {"molecule": "N#C/C(=C/c1ccccc1OCc1ccc(F)cc1)c1ccc(C(=O)O)cc1", "inhibition": "inconclusive: -39.4%"}, {"molecule": "CCN1C(=O)/C(=C/c2ccc(OCc3ccc(C(=O)O)cc3)c(Cl)c2)NC1=S", "inhibition": "inconclusive: -20.5%"}, {"molecule": "Cc1cc(SCC(=O)NN)c2cc(Br)ccc2n1", "inhibition": "inconclusive: -1.7%"}, {"molecule": "CN(C)c1oc(-c2ccccc2Cl)nc1C#N", "inhibition": "inactive: -0.3%"}, {"molecule": "O=C(Nc1ccc(N2CCOCC2)nc1)c1ccccc1Cl", "inhibition": "inconclusive: -12.6%"}, {"molecule": "CCOC(=O)[C@]12CCC=C1N(Cc1ccccc1)C(=O)[C@H](CC(=O)NCCC(C)C)C2", "inhibition": "inactive: -3.8%"}, {"molecule": "COc1cc(OC)cc(C(=O)NC2CCCN(Cc3ccc(Cl)cc3)C2)c1", "note": "(stereo not drawn)", "inhibition": "inconclusive: -13.4%"}, {"molecule": "O=C(Nn1c(O)c(C=C2N=c3ccccc3=N2)sc1=S)c1cccc(Cl)c1", "inhibition": "active: 55%"}, {"molecule": "COc1ccc(-n2c(=O)n(Cc3ccccc3)c(=O)c3[nH]cnc32)cc1", "inhibition": "inconclusive: -34.2%"}, {"molecule": "COc1c(C)cc(C(=O)C2CCCN(S(=O)(=O)N(C)C)C2)cc1C", "note": "(stereo not drawn)", "inhibition": "inconclusive: 9.2%"}, {"molecule": "O=C(c1cc(-c2ccc(Cl)cc2)on1)N1CCCC1", "inhibition": "inactive: -1%"}, {"molecule": "Cc1ccc(NC(=O)c2ccc(=O)[nH]c2)cc1S(=O)(=O)N1CCCCC1", "inhibition": "inactive: -4.4%"}, {"molecule": "Cc1cc2n(n1)C(c1sccc1C)Nc1ccccc1-2", "note": "(stereo not drawn)", "inhibition": "inconclusive: 8.1%"}]}]}
